Data taken from the supplement of paper PMC10849652.
This is one part of the list.

Amino acid sequences for entries named in this document (tags omitted). A change or cut given only in a name is not applied to a line headed by its entry.
UniProt Q5F1R6: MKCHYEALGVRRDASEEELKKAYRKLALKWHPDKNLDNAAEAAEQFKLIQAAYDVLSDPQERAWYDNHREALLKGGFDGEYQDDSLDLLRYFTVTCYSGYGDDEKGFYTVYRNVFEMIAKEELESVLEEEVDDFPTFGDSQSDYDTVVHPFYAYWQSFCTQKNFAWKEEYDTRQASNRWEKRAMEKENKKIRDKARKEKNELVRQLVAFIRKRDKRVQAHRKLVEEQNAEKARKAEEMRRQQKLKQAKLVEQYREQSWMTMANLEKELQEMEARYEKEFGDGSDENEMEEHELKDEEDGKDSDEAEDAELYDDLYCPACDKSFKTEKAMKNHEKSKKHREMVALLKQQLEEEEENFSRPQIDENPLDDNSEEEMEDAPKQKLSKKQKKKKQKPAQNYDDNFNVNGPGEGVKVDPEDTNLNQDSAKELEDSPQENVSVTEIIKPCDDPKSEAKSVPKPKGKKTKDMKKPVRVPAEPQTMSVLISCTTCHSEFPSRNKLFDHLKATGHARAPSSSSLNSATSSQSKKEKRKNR
UniProt Q01658: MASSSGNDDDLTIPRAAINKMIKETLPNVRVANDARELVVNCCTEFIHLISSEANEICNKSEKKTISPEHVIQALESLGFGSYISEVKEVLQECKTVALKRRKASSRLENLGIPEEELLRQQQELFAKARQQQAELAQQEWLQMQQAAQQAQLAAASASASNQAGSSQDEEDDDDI
UniProt Q9NY33: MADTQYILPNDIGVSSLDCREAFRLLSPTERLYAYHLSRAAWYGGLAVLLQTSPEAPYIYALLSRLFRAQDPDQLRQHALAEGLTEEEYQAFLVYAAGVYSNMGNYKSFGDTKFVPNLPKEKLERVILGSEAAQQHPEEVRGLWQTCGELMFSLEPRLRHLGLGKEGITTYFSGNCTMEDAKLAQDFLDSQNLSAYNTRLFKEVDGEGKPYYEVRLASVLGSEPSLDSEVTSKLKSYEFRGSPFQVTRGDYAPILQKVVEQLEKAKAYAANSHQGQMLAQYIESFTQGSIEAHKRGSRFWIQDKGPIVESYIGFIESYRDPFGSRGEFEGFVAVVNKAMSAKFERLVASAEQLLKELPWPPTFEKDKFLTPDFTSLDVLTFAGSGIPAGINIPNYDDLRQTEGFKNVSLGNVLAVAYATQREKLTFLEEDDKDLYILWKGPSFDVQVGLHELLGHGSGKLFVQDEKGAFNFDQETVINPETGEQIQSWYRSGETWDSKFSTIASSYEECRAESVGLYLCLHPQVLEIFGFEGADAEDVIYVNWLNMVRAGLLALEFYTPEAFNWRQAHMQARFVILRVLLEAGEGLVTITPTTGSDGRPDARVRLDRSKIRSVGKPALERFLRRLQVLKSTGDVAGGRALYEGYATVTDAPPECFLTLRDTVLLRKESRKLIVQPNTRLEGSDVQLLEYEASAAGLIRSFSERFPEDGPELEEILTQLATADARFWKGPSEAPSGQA
UniProt Q5JSL3: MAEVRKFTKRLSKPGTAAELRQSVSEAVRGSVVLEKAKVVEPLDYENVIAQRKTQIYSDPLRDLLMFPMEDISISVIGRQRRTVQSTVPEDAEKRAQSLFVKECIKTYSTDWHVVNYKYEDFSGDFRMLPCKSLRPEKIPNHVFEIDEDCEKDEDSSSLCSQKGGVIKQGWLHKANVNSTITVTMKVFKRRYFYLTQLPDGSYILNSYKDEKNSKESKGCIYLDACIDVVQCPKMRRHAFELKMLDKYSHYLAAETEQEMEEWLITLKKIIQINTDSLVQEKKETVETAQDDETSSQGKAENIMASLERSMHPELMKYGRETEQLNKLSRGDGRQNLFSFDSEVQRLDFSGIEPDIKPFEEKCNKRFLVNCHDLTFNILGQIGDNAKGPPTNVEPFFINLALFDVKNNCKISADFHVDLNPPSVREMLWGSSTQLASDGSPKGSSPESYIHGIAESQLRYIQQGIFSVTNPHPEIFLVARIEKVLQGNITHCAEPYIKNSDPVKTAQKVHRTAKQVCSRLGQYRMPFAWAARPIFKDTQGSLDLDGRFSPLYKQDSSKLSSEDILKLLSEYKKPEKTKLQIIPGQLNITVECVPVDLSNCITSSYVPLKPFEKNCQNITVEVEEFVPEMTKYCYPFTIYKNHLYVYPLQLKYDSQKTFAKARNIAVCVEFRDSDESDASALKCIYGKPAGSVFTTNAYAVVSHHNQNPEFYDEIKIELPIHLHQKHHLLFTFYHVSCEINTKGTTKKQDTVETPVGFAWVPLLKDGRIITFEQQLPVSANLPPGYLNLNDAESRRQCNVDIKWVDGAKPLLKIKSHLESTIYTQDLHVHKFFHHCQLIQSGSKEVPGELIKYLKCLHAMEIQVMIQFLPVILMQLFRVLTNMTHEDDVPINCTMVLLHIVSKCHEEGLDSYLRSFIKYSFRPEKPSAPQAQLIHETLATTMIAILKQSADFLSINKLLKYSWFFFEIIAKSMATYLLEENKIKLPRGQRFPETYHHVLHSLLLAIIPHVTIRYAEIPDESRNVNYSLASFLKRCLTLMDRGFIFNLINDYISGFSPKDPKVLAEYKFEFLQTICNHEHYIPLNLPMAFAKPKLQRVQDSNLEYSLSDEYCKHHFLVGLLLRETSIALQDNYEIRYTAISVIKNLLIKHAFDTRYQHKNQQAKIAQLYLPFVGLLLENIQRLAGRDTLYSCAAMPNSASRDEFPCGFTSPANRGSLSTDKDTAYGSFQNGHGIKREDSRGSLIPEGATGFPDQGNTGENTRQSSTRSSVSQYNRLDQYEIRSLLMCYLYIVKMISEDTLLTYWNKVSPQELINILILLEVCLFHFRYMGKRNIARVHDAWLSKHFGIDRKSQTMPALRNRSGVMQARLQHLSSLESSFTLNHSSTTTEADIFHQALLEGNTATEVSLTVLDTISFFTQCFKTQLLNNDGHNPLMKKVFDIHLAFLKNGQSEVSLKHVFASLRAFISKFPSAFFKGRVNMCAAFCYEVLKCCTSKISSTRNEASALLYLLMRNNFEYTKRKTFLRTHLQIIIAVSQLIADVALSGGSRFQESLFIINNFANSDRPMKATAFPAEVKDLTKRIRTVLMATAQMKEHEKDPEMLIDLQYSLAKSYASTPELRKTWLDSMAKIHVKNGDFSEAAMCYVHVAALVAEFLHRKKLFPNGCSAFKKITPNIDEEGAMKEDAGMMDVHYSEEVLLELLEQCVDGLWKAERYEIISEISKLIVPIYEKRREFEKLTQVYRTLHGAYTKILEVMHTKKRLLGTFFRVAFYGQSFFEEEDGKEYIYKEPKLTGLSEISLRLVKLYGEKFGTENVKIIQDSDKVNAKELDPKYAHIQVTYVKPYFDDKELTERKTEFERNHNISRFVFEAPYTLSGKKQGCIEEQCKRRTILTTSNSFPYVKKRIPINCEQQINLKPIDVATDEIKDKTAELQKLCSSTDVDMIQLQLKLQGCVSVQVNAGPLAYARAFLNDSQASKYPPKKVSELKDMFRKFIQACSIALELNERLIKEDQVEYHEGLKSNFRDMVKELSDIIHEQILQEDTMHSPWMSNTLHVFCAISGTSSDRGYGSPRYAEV
UniProt Q92611: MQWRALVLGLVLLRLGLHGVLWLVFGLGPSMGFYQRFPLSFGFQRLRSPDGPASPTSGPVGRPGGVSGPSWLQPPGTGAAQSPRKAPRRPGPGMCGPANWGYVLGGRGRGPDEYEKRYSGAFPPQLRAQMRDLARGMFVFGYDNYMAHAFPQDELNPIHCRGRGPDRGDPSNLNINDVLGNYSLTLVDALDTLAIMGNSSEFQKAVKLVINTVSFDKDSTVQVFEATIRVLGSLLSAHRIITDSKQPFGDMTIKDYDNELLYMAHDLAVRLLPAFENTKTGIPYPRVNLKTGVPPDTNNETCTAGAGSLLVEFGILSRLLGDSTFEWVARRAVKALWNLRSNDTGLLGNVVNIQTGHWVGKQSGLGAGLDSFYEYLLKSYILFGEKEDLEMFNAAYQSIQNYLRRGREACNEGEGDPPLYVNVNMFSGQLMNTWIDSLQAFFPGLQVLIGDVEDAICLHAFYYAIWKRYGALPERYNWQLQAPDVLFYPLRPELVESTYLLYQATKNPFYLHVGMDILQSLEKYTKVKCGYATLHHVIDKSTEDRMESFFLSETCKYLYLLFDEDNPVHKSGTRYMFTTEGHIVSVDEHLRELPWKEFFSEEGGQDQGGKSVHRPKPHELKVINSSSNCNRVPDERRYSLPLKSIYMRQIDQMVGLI
UniProt Q14919: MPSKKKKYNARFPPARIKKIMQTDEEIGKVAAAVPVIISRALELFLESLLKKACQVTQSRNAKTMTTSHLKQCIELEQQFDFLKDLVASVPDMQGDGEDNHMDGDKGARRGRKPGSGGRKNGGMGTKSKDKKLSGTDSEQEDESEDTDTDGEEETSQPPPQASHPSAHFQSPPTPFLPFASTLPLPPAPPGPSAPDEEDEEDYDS
UniProt O75521: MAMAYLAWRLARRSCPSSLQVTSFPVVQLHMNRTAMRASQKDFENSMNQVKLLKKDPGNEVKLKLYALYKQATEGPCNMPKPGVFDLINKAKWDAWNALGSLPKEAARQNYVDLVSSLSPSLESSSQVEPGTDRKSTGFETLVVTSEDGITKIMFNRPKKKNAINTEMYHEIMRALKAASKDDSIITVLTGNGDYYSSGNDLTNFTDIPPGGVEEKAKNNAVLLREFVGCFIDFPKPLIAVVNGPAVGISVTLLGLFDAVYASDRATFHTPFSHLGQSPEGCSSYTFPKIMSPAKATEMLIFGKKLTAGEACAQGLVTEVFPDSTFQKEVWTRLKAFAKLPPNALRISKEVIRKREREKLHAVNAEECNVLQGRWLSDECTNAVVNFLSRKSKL
UniProt Q9UDY4: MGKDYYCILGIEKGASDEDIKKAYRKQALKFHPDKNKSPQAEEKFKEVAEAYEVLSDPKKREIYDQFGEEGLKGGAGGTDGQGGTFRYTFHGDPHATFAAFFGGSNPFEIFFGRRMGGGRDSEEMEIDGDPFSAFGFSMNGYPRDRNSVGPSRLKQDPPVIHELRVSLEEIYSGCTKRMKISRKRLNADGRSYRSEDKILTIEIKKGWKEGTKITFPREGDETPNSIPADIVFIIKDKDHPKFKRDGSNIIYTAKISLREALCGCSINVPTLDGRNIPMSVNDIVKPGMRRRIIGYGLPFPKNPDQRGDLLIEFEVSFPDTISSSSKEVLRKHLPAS
UniProt Q9P2X0: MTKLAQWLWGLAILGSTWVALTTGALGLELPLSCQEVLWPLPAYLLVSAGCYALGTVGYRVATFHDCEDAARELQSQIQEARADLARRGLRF
UniProt O60762: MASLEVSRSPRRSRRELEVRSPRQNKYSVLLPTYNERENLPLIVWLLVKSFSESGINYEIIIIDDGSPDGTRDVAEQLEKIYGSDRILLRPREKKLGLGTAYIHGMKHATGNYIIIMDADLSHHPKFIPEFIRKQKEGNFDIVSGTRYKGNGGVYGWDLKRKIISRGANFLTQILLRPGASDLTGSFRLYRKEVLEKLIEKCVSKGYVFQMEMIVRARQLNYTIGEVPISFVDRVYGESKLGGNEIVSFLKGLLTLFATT
UniProt O00115: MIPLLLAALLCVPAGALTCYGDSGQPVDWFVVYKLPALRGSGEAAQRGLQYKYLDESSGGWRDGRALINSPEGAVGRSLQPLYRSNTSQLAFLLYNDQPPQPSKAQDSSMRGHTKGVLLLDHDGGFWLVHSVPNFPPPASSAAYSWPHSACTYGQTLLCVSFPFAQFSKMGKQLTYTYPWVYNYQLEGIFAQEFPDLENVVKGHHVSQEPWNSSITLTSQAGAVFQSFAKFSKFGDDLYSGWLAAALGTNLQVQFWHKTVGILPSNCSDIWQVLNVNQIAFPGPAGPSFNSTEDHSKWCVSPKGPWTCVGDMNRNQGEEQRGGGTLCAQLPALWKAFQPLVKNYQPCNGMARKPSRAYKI
UniProt Q8WWZ3: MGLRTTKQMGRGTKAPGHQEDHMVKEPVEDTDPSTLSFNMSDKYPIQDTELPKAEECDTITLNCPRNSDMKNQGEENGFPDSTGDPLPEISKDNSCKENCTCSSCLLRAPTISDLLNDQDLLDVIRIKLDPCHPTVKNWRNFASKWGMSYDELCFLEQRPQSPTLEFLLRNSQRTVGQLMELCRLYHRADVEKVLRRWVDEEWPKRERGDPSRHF
UniProt Q9NP97, whole entry, looked up: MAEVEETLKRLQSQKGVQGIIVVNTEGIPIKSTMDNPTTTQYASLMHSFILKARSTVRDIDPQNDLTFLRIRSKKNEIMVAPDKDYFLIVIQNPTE

What was measured:
Experiment in all cases: log2 fold change, soluble protein after heating vs DMSO (PISA); higher = thermal stabilisation; K562 cells, 10 uM, 30 min; active = over 0.2 and 3.5 SD of the protein, either way, in both replicates (recomputed)
saracatinib = compound: CN1CCN(CCOc2cc(OC3CCOCC3)c3c(Nc4c(Cl)ccc5c4OCO5)ncnc3c2)CC1 [saracatinib]
How it was run: (§1)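 K562 cells at 2×10^6 cells/mL were treated with 10 μM compound for 30 min. Aliquots were heated for 3 min across 48°C-58°C, pooled, and extracted in PBS with 0.5% NP-40 at 4°C; soluble protein was the supernatant after 21,000xg for 90 min. Soluble protein was quantified by TMTpro 16plex LC-MS/MS with channel sums equalised, and reported as log2 fold change in thermal stability against DMSO controls, with values from duplicates.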

sotrastaurin = compound: CN1CCN(c2nc(C3=C(c4c[nH]c5ccccc45)C(=O)NC3=O)c3ccccc3n2)CC1 [sotrastaurin]
How it was run: as §1

alvocidib = compound: CN1CC[C@H](c2c(O)cc(O)c3c(=O)cc(-c4ccccc4Cl)oc23)[C@H](O)C1 [alvocidib]
How it was run: as §1

Tubastatin A = compound: CN1CCc2c(c3ccccc3n2Cc2ccc(C(=O)NO)cc2)C1 [Tubastatin A]
How it was run: as §1

[1] = compound: CNC(=O)C1=CC=CC=C1NC2=NC(=NC=C2Cl)NC3=C(C=C(C=C3)N4CCOCC4)OC
How it was run: as §1

defactinib = compound: CNC(=O)c1ccc(Nc2ncc(C(F)(F)F)c(NCc3nccnc3N(C)S(C)(=O)=O)n2)cc1 [defactinib]
How it was run: as §1

rucaparib = compound: CNCc1ccc(-c2[nH]c3cc(F)cc4c3c2CCNC4=O)cc1 [rucaparib]
How it was run: as §1

[2] = compound: CNc1nc(-c2ccc3c(N)n[nH]c3c2)cc(N2C[C@@H](C(=O)NC3CCCCC3)CC[C@H]2C)n1
How it was run: as §1

encorafenib = compound: COC(=O)N[C@@H](C)CNc1nccc(-c2cn(C(C)C)nc2-c2cc(Cl)cc(NS(C)(=O)=O)c2F)n1 [encorafenib]
How it was run: as §1

[3] = compound: COC(=O)[C@H](CCSC)NC(=O)C1=C(C=C(C=C1)NC[C@H](CS)N)C2=CC=CC=C2
How it was run: as §1

[4] = compound: COC1=CC=C(C=C1)CN2C=CC3=C2C=C(C=C3)C(=O)NO
How it was run: as §1

filanesib = compound: CON(C)C(=O)N1N=C(c2cc(F)ccc2F)S[C@@]1(CCCN)c1ccccc1 [filanesib]
How it was run: as §1

zotarolimus = compound: CO[C@H]1C[C@@H]2CC[C@@H](C)[C@@](O)(O2)C(=O)C(=O)N2CCCC[C@H]2C(=O)O[C@H]([C@H](C)C[C@@H]2CC[C@H](n3cnnn3)[C@H](OC)C2)CC(=O)[C@H](C)/C=C(\C)[C@@H](O)[C@@H](OC)C(=O)[C@H](C)C[C@H](C)/C=C/C=C/C=C/1C [zotarolimus]
How it was run: as §1

idasanutlin = compound: COc1cc(C(=O)O)ccc1NC(=O)[C@@H]1N[C@@H](CC(C)(C)C)[C@](C#N)(c2ccc(Cl)cc2F)[C@H]1c1cccc(Cl)c1F [idasanutlin]
How it was run: as §1

alisertib = compound: COc1cc(Nc2ncc3c(n2)-c2ccc(Cl)cc2C(c2c(F)cccc2OC)=NC3)ccc1C(=O)O [alisertib]
How it was run: as §1

[5] = compound: COc1cc2nc(-c3cc(F)ccc3O)nc(N[C@@H]3CNC[C@H]3C(C)(C)O)c2cc1OC
How it was run: as §1

gefitinib = compound: COc1cc2ncnc(Nc3ccc(F)c(Cl)c3)c2cc1OCCCN1CCOCC1 [gefitinib]
How it was run: as §1

[6] = compound: COc1cccc2cc(-c3nc([C@H]4CC[C@H](C(=O)O)CC4)n4ncnc(N)c34)[nH]c12
How it was run: as §1

lapatinib = compound: CS(=O)(=O)CCNCc1ccc(-c2ccc3ncnc(Nc4ccc(OCc5cccc(F)c5)c(Cl)c4)c3c2)o1 [lapatinib]
How it was run: as §1

pictilisib = compound: CS(=O)(=O)N1CCN(Cc2cc3nc(-c4cccc5[nH]ncc45)nc(N4CCOCC4)c3s2)CC1 [pictilisib]
How it was run: as §1

Measured: log2 fold change

DNAJC21 isoform 3 (UniProt Q5F1R6)
inactive: saracatinib -0.005 | sotrastaurin -0.027 | alvocidib 0.061 | Tubastatin A 0.087 | [1] 0.024 | defactinib 0.019 | rucaparib 0.202 | [2] 0.064 | encorafenib 0.092 | [3] -0.113 | [4] 0.022 | filanesib 0.129 | zotarolimus -0.014 | idasanutlin 0.083 | alisertib -0.01 | [5] 0.072 | gefitinib -0.009 | [6] -0.099 | lapatinib 0.015 | pictilisib -0.062

DR1 (UniProt Q01658)
inactive: saracatinib 0.003 | sotrastaurin -0.013 | alvocidib 0.028 | Tubastatin A -0.027 | [1] -0.038 | defactinib 0.006 | rucaparib -0.134 | [2] -0.077 | encorafenib 0.008 | [3] 0.035 | [4] 0.119 | filanesib -0.011 | zotarolimus -0.007 | idasanutlin 0.019 | alisertib -0.002 | [5] -0.002 | gefitinib -0.021 | [6] -0.022 | lapatinib -0.048 | pictilisib 0.004

DPP3 (UniProt Q9NY33)
inactive: saracatinib -0.027 | sotrastaurin 0.042 | alvocidib -0.052 | Tubastatin A 0.019 | [1] -0.015 | defactinib -0.058 | rucaparib -0.045 | [2] 0.016 | encorafenib -0.017 | [3] 0.069 | [4] 0.015 | filanesib -0.118 | zotarolimus 0.053 | idasanutlin -0.08 | alisertib -0.016 | [5] -0.003 | gefitinib 0.004 | [6] 0.049 | lapatinib 0 | pictilisib 0.01

DOCK11 (UniProt Q5JSL3)
inactive: saracatinib -0.058 | sotrastaurin -0.105 | alvocidib 0 | Tubastatin A 0.019 | [1] 0.049 | defactinib -0.027 | rucaparib 0.074 | [2] 0.048 | encorafenib 0.083 | [3] -0.025 | [4] -0.016 | filanesib -0.004 | zotarolimus -0.018 | idasanutlin -0.071 | alisertib -0.032 | [5] 0.103 | gefitinib -0.012 | [6] 0 | lapatinib 0 | pictilisib 0.062

EDEM1 (UniProt Q92611)
inactive: saracatinib -0.04 | sotrastaurin -0.107 | alvocidib 0.027 | Tubastatin A 0.022 | [1] -0.107 | defactinib 0.026 | rucaparib 0.083 | [2] -0.146 | encorafenib -0.046 | [3] 0.009 | [4] -0.101 | filanesib 0.029 | zotarolimus -0.092 | idasanutlin -0.016 | alisertib 0.054 | [5] 0.045 | gefitinib 0.075 | [6] -0.046 | lapatinib -0.08 | pictilisib -0.101

DRAP1 isoform 2 (UniProt Q14919)
inactive: saracatinib 0.023 | sotrastaurin 0.02 | alvocidib 0 | Tubastatin A -0.03 | [1] -0.02 | defactinib -0.014 | rucaparib -0.072 | [2] -0.044 | encorafenib -0.04 | [3] 0.015 | [4] -0.007 | filanesib -0.016 | zotarolimus -0.019 | idasanutlin 0.011 | alisertib -0.042 | [5] -0.004 | gefitinib 0.021 | [6] 0.063 | lapatinib 0.002 | pictilisib 0.016

ECI2 (UniProt O75521)
inactive: saracatinib 0.002 | sotrastaurin 0.039 | alvocidib -0.005 | Tubastatin A -0.005 | [1] -0.011 | defactinib -0.039 | rucaparib -0.01 | [2] -0.031 | encorafenib 0.019 | [3] -0.01 | [4] -0.021 | filanesib -0.066 | zotarolimus 0.007 | idasanutlin -0.072 | alisertib -0.016 | [5] 0.038 | gefitinib 0.006 | [6] 0.031 | lapatinib -0.025 | pictilisib 0.07

DPY19L1, A0A1B0GW05
inactive: saracatinib 0.095 | sotrastaurin -0.046 | alvocidib 0.025 | Tubastatin A 0.021 | [1] 0.071 | defactinib 0.014 | rucaparib 0.041 | [2] -0.052 | encorafenib 0.046 | [3] 0.047 | [4] 0.003 | filanesib 0.024 | zotarolimus -0.011 | idasanutlin -0.026 | alisertib -0.039 | [5] -0.053 | gefitinib 0.028 | [6] -0.071 | lapatinib 0.102

DNAJB4 (UniProt Q9UDY4)
inactive: saracatinib 0.015 | sotrastaurin -0.025 | alvocidib -0.013 | Tubastatin A -0.025 | [1] -0.003 | defactinib -0.011 | rucaparib 0.005 | [2] -0.038 | encorafenib 0.042 | [3] 0.022 | [4] -0.037 | filanesib -0.001 | zotarolimus 0.034 | idasanutlin 0.018 | alisertib -0.041 | [5] -0.021 | gefitinib 0.025 | [6] -0.017 | lapatinib 0.015 | pictilisib 0.021

DPM3 isoform 2 (UniProt Q9P2X0)
inactive: saracatinib 0.015 | sotrastaurin 0.068 | alvocidib -0.124 | Tubastatin A 0.029 | [1] 0.047 | defactinib 0.015 | rucaparib 0.04 | [2] -0.044 | encorafenib -0.033 | [3] -0.287 | [4] -0.169 | filanesib -0.008 | zotarolimus -0.076 | idasanutlin 0.049 | alisertib -0.057 | [5] -0.126 | gefitinib 0.12 | [6] 0.009 | lapatinib 0.018

DPM1 (UniProt O60762)
inactive: saracatinib -0.019 | sotrastaurin 0.033 | alvocidib -0.01 | Tubastatin A -0.014 | [1] 0.062 | defactinib 0.01 | rucaparib -0.043 | [2] -0.068 | encorafenib 0.008 | [3] 0.04 | [4] -0.029 | filanesib -0.079 | zotarolimus -0.033 | idasanutlin -0.044 | alisertib -0.051 | [5] -0.015 | gefitinib 0.001 | [6] 0.052 | lapatinib -0.011 | pictilisib 0.043

DNASE2 (UniProt O00115)
inactive: saracatinib 0.005 | sotrastaurin 0.01 | alvocidib 0.016 | Tubastatin A -0.04 | [1] 0.058 | defactinib 0.023 | rucaparib 0.02 | [2] -0.081 | encorafenib -0.016 | [3] 0.001 | [4] -0.015 | filanesib 0.011 | zotarolimus -0.032 | idasanutlin 0.029 | alisertib -0.038 | [5] -0.019 | gefitinib 0.052 | [6] 0.053 | lapatinib -0.005 | pictilisib 0.03

EDARADD (UniProt Q8WWZ3)
inactive: saracatinib 0.089 | sotrastaurin 0.081 | alvocidib -0.008 | Tubastatin A -0.106 | [1] -0.058 | defactinib -0.009 | rucaparib 0.018 | [2] -0.028 | encorafenib -0.038 | [3] 0.059 | [4] -0.146 | filanesib 0.003 | zotarolimus 0.019 | idasanutlin 0.022 | alisertib -0.006 | [5] 0.063 | gefitinib 0.02 | [6] 0 | lapatinib -0.05 | pictilisib 0.085

2 records drawn at random from those above:
DNAJB4 (UniProt Q9UDY4)
inactive: saracatinib 0.015 | sotrastaurin -0.025 | alvocidib -0.013 | Tubastatin A -0.025 | [1] -0.003 | defactinib -0.011 | rucaparib 0.005 | [2] -0.038 | encorafenib 0.042 | [3] 0.022 | [4] -0.037 | filanesib -0.001 | zotarolimus 0.034 | idasanutlin 0.018 | alisertib -0.041 | [5] -0.021 | gefitinib 0.025 | [6] -0.017 | lapatinib 0.015 | pictilisib 0.021

DPM1 (UniProt O60762)
inactive: saracatinib -0.019 | sotrastaurin 0.033 | alvocidib -0.01 | Tubastatin A -0.014 | [1] 0.062 | defactinib 0.01 | rucaparib -0.043 | [2] -0.068 | encorafenib 0.008 | [3] 0.04 | [4] -0.029 | filanesib -0.079 | zotarolimus -0.033 | idasanutlin -0.044 | alisertib -0.051 | [5] -0.015 | gefitinib 0.001 | [6] 0.052 | lapatinib -0.011 | pictilisib 0.043

Following part

DYNLRB1 (UniProt Q9NP97)
inactive: saracatinib -0.062 | sotrastaurin 0.056 | alvocidib -0.013 | Tubastatin A 0.018 | [1] 0.044 | defactinib 0.006 | rucaparib 0.035 | [2] 0.002 | encorafenib -0.035 | [3] 0.066 | [4] 0.009 | filanesib 0.031 | zotarolimus -0.018 | idasanutlin 0.008 | alisertib -0.042 | [5] -0.032 | gefitinib 0.04 | [6] 0.045 | lapatinib -0.009 | pictilisib 0.021

DOCK9 isoform 4 (UniProt Q9BZ29)
inactive: saracatinib -0.004 | sotrastaurin -0.141 | alvocidib 0.001 | Tubastatin A -0.01 | [1] 0.018 | defactinib -0.045 | rucaparib -0.009 | [2] -0.037 | encorafenib -0.001 | [3] -0.025 | [4] -0.01 | filanesib -0.106 | zotarolimus -0.032 | idasanutlin -0.016 | alisertib -0.075 | [5] 0.121 | gefitinib 0.008 | [6] 0.034 | lapatinib -0.015 | pictilisib 0.061
